# Results: patent publication US20130165328, “APPARATUS AND METHODS FOR KINETIC ANALYSIS AND DETERMINATION OF NUCLEIC ACID SEQUENCES” (ILLUMINA, INC., published 2013)
# Tags and fusion partners may be left off the protein sequences shown.
# Molecular target: T1, BSU DNA polymerase I second Ser after 6xHis tag replaced by Cys (in tag) (Bacillus subtilis) (UniProt O34996)
# T1 sequence (looked up, limits assumed): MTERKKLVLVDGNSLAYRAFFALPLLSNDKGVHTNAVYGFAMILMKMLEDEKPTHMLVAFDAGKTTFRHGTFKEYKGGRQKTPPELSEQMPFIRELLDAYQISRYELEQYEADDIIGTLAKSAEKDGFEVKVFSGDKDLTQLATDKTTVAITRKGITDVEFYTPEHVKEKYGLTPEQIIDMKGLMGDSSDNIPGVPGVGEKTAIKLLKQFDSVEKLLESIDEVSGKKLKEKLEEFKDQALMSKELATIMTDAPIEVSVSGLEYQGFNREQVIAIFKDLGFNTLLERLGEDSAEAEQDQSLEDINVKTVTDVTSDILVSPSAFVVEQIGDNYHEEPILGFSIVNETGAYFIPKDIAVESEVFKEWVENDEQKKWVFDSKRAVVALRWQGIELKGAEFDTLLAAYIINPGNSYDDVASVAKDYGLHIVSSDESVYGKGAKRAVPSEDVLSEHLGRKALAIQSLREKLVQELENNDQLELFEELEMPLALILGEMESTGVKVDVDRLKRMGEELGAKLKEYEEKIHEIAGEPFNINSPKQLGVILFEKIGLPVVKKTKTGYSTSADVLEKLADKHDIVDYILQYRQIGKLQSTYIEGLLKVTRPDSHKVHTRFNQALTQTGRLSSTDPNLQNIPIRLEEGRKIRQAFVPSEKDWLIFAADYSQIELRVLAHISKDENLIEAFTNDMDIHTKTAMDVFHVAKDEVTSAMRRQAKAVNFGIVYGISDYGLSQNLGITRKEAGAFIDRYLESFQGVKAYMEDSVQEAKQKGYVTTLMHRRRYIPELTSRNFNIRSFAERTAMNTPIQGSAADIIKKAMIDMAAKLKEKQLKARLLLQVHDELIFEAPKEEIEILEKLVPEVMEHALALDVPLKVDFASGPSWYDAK
# Assay: activity assay
# Conditions: quench-flow kpol for dCTP; nucleotide Kd,app 29.1 uM (not DNA Kd); 300 mM NaCl, 10 mM MgSO4, 45 C; purified recombinant protein; label: 5'-Cy5 primer
sequence,measurement,value
GCTTGCACAGGGCCTCGAC / CGTTAGTAAGGTCGAGGCCCTGTGCAAGC [19/36 mer primer/template duplex (Cy5-labelled)],activity on this sequence,active
